2 molecules from patent US20250084161A1 can be followed below.

Assay [1] concerns the target T1, pDisplay-ECD2 on HEK293 cells (Homo sapiens (Human)) (UniProt Q99572).
T1 sequence: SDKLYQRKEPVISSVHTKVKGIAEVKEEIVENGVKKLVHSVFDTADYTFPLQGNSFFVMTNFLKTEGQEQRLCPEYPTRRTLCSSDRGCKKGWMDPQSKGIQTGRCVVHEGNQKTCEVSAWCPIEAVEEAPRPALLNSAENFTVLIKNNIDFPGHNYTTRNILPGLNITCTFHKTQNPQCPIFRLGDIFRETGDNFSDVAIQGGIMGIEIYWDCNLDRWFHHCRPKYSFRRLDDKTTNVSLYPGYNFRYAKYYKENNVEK
The assay is described as follows: flow cytometry, live HEK293E cells expressing pDisplay-ECD2 ('HEK293E-pDisplay ED'), dAb at 5 uM, detection with anti-human IgG Fab. In general terms: Flow cytometry measures light scatter and fluorescence of single cells or particles in a stream.

The target in assay [2] is T2, ECD2, P2X7 receptor (47-306), soluble (Homo sapiens (Human)) (UniProt Q99572).
T2 sequence: T1 sequence
The assay is described as follows: Biacore, 10 and 5 nM. The surface is not named for this figure; ECD2 domain is taken from the context of paragraph 361 and paragraph 362. For orientation: In SPR one partner is held on a chip, and binding of the other changes the refractive index at the surface.

These are yes or no findings as the source states them, for the method shown. Some binding calls cover weakened binding; strength is not graded here.

B1: 42.1 (protein)
VH single domain (dAb): EVQMLESGGGLVQPGGSLRLSCAASGFTFDNVEMSWVRQAPGKGLEWVSSIGTKGEYTYYADSVKGRFTISRDNSKNTLYLQMNSMRAEDTAVYYCAQTVNVPEPAFAYWGQGTLVTVLS
For B1, the binding entry in assay [1] was “binds”.

B2: PEP2-472-12Alexa488 domain (protein)
VH: EVQLLESGGGLVQPGGSLRLSCAASGYTFPMKDMGWVRQAPGKGLEWVSAISGSGGGTYYADSVKGRFTISRDNSKNTLYLQMNSLRAEDTAVYYCAEPKPMDTEFDYRSPGTLVTVSS
modifications: Alexa488 label attached (site not stated)
With B2, the binding result in assay [2] was “binds”.
